This is one part of the list.
Tests used:
Assay in all cases: glycan array binding signal (z-score within array); higher = stronger binding
Settings in all cases: glycan notation: IUPAC condensed, linker removed
Gal(a1-3)GalNAc = biological target: Gal(a1-3)GalNAc
Outline: (§1)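 Negative Z-scores can be read as non-binding. The Z-score is calculated within each array and then averaged across arrays of one protein sequence at different concentrations or buffers and across linkers. Arrays, 3228 in all, were curated from the Consortium for Functional Glycomics database and kept only where the protein sequence was available.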

[1] = biological target: Gal(a1-3)[Gal(a1-4)]Gal(b1-4)GlcNAc
Outline: as §1

[2] = biological target: Gal(a1-4)Gal(b1-3)GlcNAc(b1-2)Man(a1-3)[Gal(a1-4)Gal(b1-3)GlcNAc(b1-2)Man(a1-6)]Man(b1-4)GlcNAc(b1-4)GlcNAc
Outline: as §1

Gal(a1-4)Gal(b1-4)Glc = biological target: Gal(a1-4)Gal(b1-4)Glc
Outline: as §1

Gal(a1-4)Gal(b1-4)GlcNAc = biological target: Gal(a1-4)Gal(b1-4)GlcNAc
Outline: as §1

[3] = biological target: Gal(a1-4)Gal(b1-4)GlcNAc(b1-2)Man(a1-3)[Gal(a1-4)Gal(b1-4)GlcNAc(b1-2)Man(a1-6)]Man(b1-4)GlcNAc(b1-4)GlcNAc
Outline: as §1

[4] = biological target: Gal(a1-4)Gal(b1-4)GlcNAc(b1-3)Gal(b1-4)Glc
Outline: as §1

Gal(a1-4)GlcNAc = biological target: Gal(a1-4)GlcNAc
Outline: as §1

Gal(a1-6)Glc = biological target: Gal(a1-6)Glc
Outline: as §1

Gal(b1-2)Gal = biological target: Gal(b1-2)Gal
Outline: as §1

Gal(b1-3)Gal = biological target: Gal(b1-3)Gal
Outline: as §1

Gal(b1-3)Gal(b1-4)GlcNAc = biological target: Gal(b1-3)Gal(b1-4)GlcNAc
Outline: as §1

Gal(b1-3)GalNAc = biological target: Gal(b1-3)GalNAc
Outline: as §1

[5] = biological target: Gal(b1-3)GalNAc(a1-3)[Fuc(a1-2)]Gal(b1-4)Glc
Outline: as §1

[6] = biological target: Gal(b1-3)GalNAc(a1-3)[Fuc(a1-2)]Gal(b1-4)GlcNAc
Outline: as §1

Gal(b1-3)GalNAc(b1-3)Gal = biological target: Gal(b1-3)GalNAc(b1-3)Gal
Outline: as §1

[7] = biological target: Gal(b1-3)GalNAc(b1-3)Gal(a1-4)Gal(b1-4)Glc
Outline: as §1

[8] = biological target: Gal(b1-3)GalNAc(b1-4)Gal(b1-4)Glc
Outline: as §1

[9] = biological target: Gal(b1-3)GalNAc(b1-4)[Neu5Ac(a2-3)]Gal(b1-4)Glc
Outline: as §1

Gal(b1-3)GlcNAc = biological target: Gal(b1-3)GlcNAc
Outline: as §1

[10] = biological target: Gal(b1-3)GlcNAc(a1-3)Gal(b1-4)GlcNAc
Outline: as §1

[11] = biological target: Gal(b1-3)GlcNAc(a1-6)Gal(b1-4)GlcNAc
Outline: as §1

Gal(b1-3)GlcNAc(b1-2)Man = biological target: Gal(b1-3)GlcNAc(b1-2)Man
Outline: as §1

[12] = biological target: Gal(b1-3)GlcNAc(b1-2)Man(a1-3)[Gal(b1-3)GlcNAc(b1-2)Man(a1-6)]Man(b1-4)GlcNAc(b1-4)GlcNAc
Outline: as §1

[13] = biological target: Gal(b1-3)GlcNAc(b1-2)Man(a1-3)[Gal(b1-3)GlcNAc(b1-2)Man(a1-6)]Man(b1-4)GlcNAc(b1-4)[Fuc(a1-6)]GlcNAc
Outline: as §1

[14] = biological target: Gal(b1-3)GlcNAc(b1-2)Man(a1-3)[GlcNAc(b1-4)][Gal(b1-3)GlcNAc(b1-2)Man(a1-6)]Man(b1-4)GlcNAc(b1-4)GlcNAc
Outline: as §1

[15] = biological target: Gal(b1-3)GlcNAc(b1-2)[Gal(b1-3)GlcNAc(b1-6)]Man(a1-6)[Gal(b1-3)GlcNAc(b1-2)Man(a1-3)]Man(b1-4)GlcNAc(b1-4)GlcNAc
Outline: as §1

[16] = biological target: Gal(b1-3)GlcNAc(b1-3)Gal(b1-3)GlcNAc
Outline: as §1

[17] = biological target: Gal(b1-3)GlcNAc(b1-3)Gal(b1-4)Glc
Outline: as §1

[18] = biological target: Gal(b1-3)GlcNAc(b1-3)Gal(b1-4)GlcNAc
Outline: as §1

[19] = biological target: Gal(b1-3)GlcNAc(b1-3)Gal(b1-4)GlcNAc(b1-2)Man(a1-3)[Gal(b1-3)GlcNAc(b1-3)Gal(b1-4)GlcNAc(b1-2)Man(a1-6)]Man(b1-4)GlcNAc(b1-4)GlcNAc
Outline: as §1

[20] = biological target: Gal(b1-3)GlcNAc(b1-3)Gal(b1-4)GlcNAc(b1-2)[Gal(b1-3)GlcNAc(b1-3)Gal(b1-4)GlcNAc(b1-6)]Man(a1-6)[Gal(b1-3)GlcNAc(b1-3)Gal(b1-4)GlcNAc(b1-2)Man(a1-3)]Man(b1-4)GlcNAc(b1-4)[Fuc(a1-6)]GlcNAc
Outline: as §1

[21] = biological target: Gal(b1-3)GlcNAc(b1-3)Gal(b1-4)GlcNAc(b1-3)Gal(b1-4)GlcNAc(b1-2)[Gal(b1-3)GlcNAc(b1-3)Gal(b1-4)GlcNAc(b1-3)Gal(b1-4)GlcNAc(b1-6)]Man(a1-6)[Gal(b1-3)GlcNAc(b1-3)Gal(b1-4)GlcNAc(b1-3)Gal(b1-4)GlcNAc(b1-2)Man(a1-3)]Man(b1-4)GlcNAc(b1-4)[Fuc(a1-6)]GlcNAc
Outline: as §1

[22] = biological target: Gal(b1-3)GlcNAc(b1-3)Gal(b1-4)GlcNAc(b1-6)[Gal(b1-3)GlcNAc(b1-3)]Gal(b1-4)Glc
Outline: as §1

[23] = biological target: Gal(b1-3)GlcNAc(b1-3)Gal(b1-4)[Fuc(a1-3)]GlcNAc
Outline: as §1

[24] = biological target: Gal(b1-3)GlcNAc(b1-3)Gal(b1-4)[Fuc(a1-3)]GlcNAc(b1-6)[Gal(b1-3)GlcNAc(b1-3)]Gal(b1-4)Glc
Outline: as §1

[25] = biological target: Gal(b1-3)GlcNAc(b1-3)GalNAc
Outline: as §1

[26] = biological target: Gal(b1-3)GlcNAc(b1-6)Gal(b1-4)GlcNAc
Outline: as §1

B1: SUN4 (Saccharomyces cerevisiae), P53616 (protein)
chain: MGSSHHHHHHSSGLVPRGSHNGSIYGDLADFSGPYEKFEDGTIPCGQFPSGQGVIPISWLDEGGWSGVENTDTSTGGSCKEGSYCSYACQPGMSKTQWPSDQPSDGRSIGGLLCKDGYLYRSNTDTDYLCEWGVDAAYVVSELSNDVAICRTDYPGTENMVIPTYVQAGDSLPLTVVDQDTYYTWQGLKTSAQYYVNNAGISVEDACVWGSSSSGVGNWAPLNFGAGSSDGVAYLSLIPNPNNGNALNFNVKIVAADDSSTVNGECIYENGSFSGGSDGCTVSVTAGKAKFVLYN
- glycan array binding signal (z-score) (Gal(a1-3)GalNAc): 0.121
- glycan array binding signal (z-score) [1]: 0.945
- glycan array binding signal (z-score) [2]: -0.153
- glycan array binding signal (z-score) (Gal(a1-4)Gal(b1-4)Glc): 0.787
- glycan array binding signal (z-score) (Gal(a1-4)Gal(b1-4)GlcNAc): -0.358
- glycan array binding signal (z-score) [3]: 1.4
- glycan array binding signal (z-score) [4]: -0.077
- glycan array binding signal (z-score) (Gal(a1-4)GlcNAc): -0.933
- glycan array binding signal (z-score) (Gal(a1-6)Glc): -1.22
- glycan array binding signal (z-score) (Gal(b1-2)Gal): 0.236
- glycan array binding signal (z-score) (Gal(b1-3)Gal): 0.331
- glycan array binding signal (z-score) (Gal(b1-3)Gal(b1-4)GlcNAc): 0.303
- glycan array binding signal (z-score) (Gal(b1-3)GalNAc): -0.297
- glycan array binding signal (z-score) [5]: -0.308
- glycan array binding signal (z-score) [6]: 0.109
- glycan array binding signal (z-score) (Gal(b1-3)GalNAc(b1-3)Gal): -0.668
- glycan array binding signal (z-score) [7]: 0.295
- glycan array binding signal (z-score) [8]: 0.219
- glycan array binding signal (z-score) [9]: -0.591
- glycan array binding signal (z-score) (Gal(b1-3)GlcNAc): -0.679
- glycan array binding signal (z-score) [10]: 0.196
- glycan array binding signal (z-score) [11]: -0.44
- glycan array binding signal (z-score) (Gal(b1-3)GlcNAc(b1-2)Man): 0.274
- glycan array binding signal (z-score) [12]: -0.74
- glycan array binding signal (z-score) [13]: -0.257
- glycan array binding signal (z-score) [14]: -0.166
- glycan array binding signal (z-score) [15]: -0.743
- glycan array binding signal (z-score) [16]: 0.197
- glycan array binding signal (z-score) [17]: 0.536
- glycan array binding signal (z-score) [18]: -0.542
- glycan array binding signal (z-score) [19]: 0.342
- glycan array binding signal (z-score) [20]: 1.49
- glycan array binding signal (z-score) [21]: 0.455
- glycan array binding signal (z-score) [22]: -0.058
- glycan array binding signal (z-score) [23]: 0.131
- glycan array binding signal (z-score) [24]: -0.488
- glycan array binding signal (z-score) [25]: -0.163
- glycan array binding signal (z-score) [26]: -0.721

Reference: the supplement of paper PMC8728848
